Results are given in words; binding and its absence hold for the method and conditions named. Binding seen in cells or lysates may run through a third protein. Some entries that bind do so weakly or less than the wild type. Where a sequence is shown, tags or fusion partners need not be part of it.
Molecular target: p62/SQSTM1 (mouse (endogenous in primary hepatocytes)) (UniProt Q64337)
Experiment: co-IP; reverse co-IP: endogenous p62 precipitated with anti-p62 antibody from lysates of primary hepatocytes infected with Ad-Eepd1-flag, treated with Baf A1 (100 nM, 4 h) under CIH (12 h and 24 h); IP lysis buffer 50 mM Tris-HCl, 150 mM NaCl, 1 mM EDTA, 1% NP-40, pH 7.4; overnight at 4 C; protein A/G magnetic beads; immunoblot for Eepd1

B1: Eepd1-flag (Eepd1 overexpressed from adenovirus Ad-Eepd1-flag) (enzyme, UniProt Q3TGW2 1-569)
chain: MGSTLGCHRSIPRDPSDLSHNRKFSAACNFSNILVNQERLNINTATEEELMTLPGVTRAVARSIVEYREYIGGFKKVEDLALVSGVGATKLEQVKFEICVSSKGNSAQHSPSSLRRDLLAEQQPHHLTTTVPLTPRVNINTATLAQLMSVRGLSEKMALSIVDYRREHGPFRSVEDLVRMDGINAAFLDRIRHQVFAERSRPPSTHTNGGLTFTAKPHPSPTSLSLQSEDLDLPPGGPTQIISMRPSVEAFGGMRDGRPVFRLATWNLQGCSVEKANNPGVREVVCMTLLENSIKLLAVQELLDKEALEKFCTELNQPILPNIRKWKGSRGCWRSIVAEKPSNQLQKGPCYSGFLWDTAANVELRDIPGRESSPSNGHAKAVGPSPFLARFKVGSNDLTLVNLQLTALALPGAENSSKNHSDGHRLLNFALTLQETLKGEKDVVILGDFGQGPDSNDYDILRREKFHHLVPAHTFTNISTRNPQGSKSVDNIWISKSLKKVFTGHWAVVREGLTNPWIPDNWSWGGVASEHCPVLAELYMEKDWSKKEVPRNGNGVTLEPSEANIKHER
With B1 the binding was “binds”.

Source: PMC11425227
